Measurements taken from US9296692B2, “Use of indolyl and indolinyl hydroxamates for treating heart failure of neuronal injury” (TAIPEI MEDICAL UNIVERSITY, priority 2011, dated 2016).
For at least one compound, name, drawing or mass did not settle the structure.

Columns and labels:
[1] = system: heart failure (HF) rats; test: Cardiac morphology and Masson trichrome histology (cardiac fibrosis) in HF rats; type: in vivo, Wistar rats; settings: 100 mg/kg oral once daily for 7 days, left ventricular apex
[2] = system: cAMP response element-binding protein (CREB); test: Western blot analysis of CREB in brain of MCAO rats; type: in vivo; settings: 30 mg/Kg intravenous, RA, LA, RP, LP brain areas
Description: (§1) In this example, effects of compounds of this invention were varified using ischematic stroke animal model.
(§2) The bilateral common carotid arteries were isolated through a neck incision and occluded with aneurysm clips. […] After 60 minutes, rats were re-anesthetized, the carotid clips were removed, and the neck incision was closed. The rats were returned to their home cage after fully recovered from anesthesia. The sham surgery is similar to the MCAO surgery, which included the step of opening the dura, yet without the steps of isolating, clipping, or coagulating neither the MCA nor carotid vessel.
Compound 1 was dissolved in 5% ethanol, 35% polyethylene glycol and 60% normal saline at a concentration of 15 mg/ml. All test animals received intravenous injection of either compound 1 (30 mg/Kg), valproic acid (VPA, 30 mg/kg) or vehicle (5% ethanol, 35% polyethylene glycol and 60% normal saline) at 0-7 days after MCAO.
Collected protein samples were mixed with Laemli sample buffer. […] The Immunoblottingquantification was fulfilled via Quantity OneTMsoftware (Bio-Rad).
Level of CREB phosphorylaiton was measured by western blot ananlysis in accordance with steps described in Example 4.3. […]

[3] = system: MCAO rats; test: Infarction volume (TTC staining) in middle cerebral artery occlusion (MCAO) rats; type: in vivo
Description: as §1, §2
Compound 1 was dissolved in 5% ethanol, 35% polyethylene glycol and 60% normal saline at a concentration of 15 mg/ml. […]
Medicaments prepared in accordance with steps described in Example 4.2 were given to the 3 groups of MCAO rats of Example 4.1 (N=5, for each group), and the infraction area of these animals were then stained and estimated by similar steps described in Examples 3.4 and 3.5, and results are illustrated in FIGS. 7A and 7B. […] In another example, after induction of MACO, rats were infused with compound 1 at 30 min, 2 hrs, 4 hrs, and 24 hrs, respectively; and the infarction volume was calculated 3 days after MCAO.

[4] = system: TBI rats; test: Skilled forelimb reaching task in TBI rats; type: in vivo, Sprague-Dawley rats; settings: 30 mg/Kg intravenous at 0-7 days after TBI
Text: Adult male Sprague-Dawley rats (each weighted about 250-300 g, and were purchased from BioLASCO Taiwan Co., Ltd) were used in this study. The rats were randomly allocated into three groups: (i) TBI+test Compound (e.g., Compound 1 or valproic acid (VPA)), (ii) TBI+VEH (i.e., vehicle-treated TBI rats), and (iii) Sham (sham-operated control). They were housed in an animal room under temperature control (24-25) and 12:12 light-dark cycle. Standard laboratory rat chow and tap water were available ad libitum. All animal experiments were carried out in accordance with the guidelines established by the Institutional Animal Care and Utilization Committee of the Taipei Medical University (Taipei, Taiwan, R.O.C.).
Surgical anesthesia was induced by ketamine (90 mg/kg body weight) and xylazine (10 mg/kg body weight), which were administered intraperitoneally (ip). Following anesthesia, the animals were secured in a stereotaxic frame and ventilated mechanically. A cortical contusion was produced on the exposed cortex using a controlled impactor device TBI-0200 TBI Model system (Precision Systems and Instrumentation). […]
All test animals were trained to criterion on the skilled forelimb reaching task. […] During the initial days of training, limb preference was determined and placement of pellets was adjusted to favor the use of the preferred forelimb. […]

[5] = system: atrial natriuretic peptide (ANP); test: Cardiac ANP mRNA expression by qPCR in HF rats; type: in vivo; settings: 100 mg/kg oral for a week, versus vehicle, normalized to GAPDH
[6] = system: TBI rats; test: Contusion area/volume (TTC staining) in traumatic brain injury (TBI) rats; type: in vivo, Sprague-Dawley rats; settings: 30 mg/Kg intravenous at 0-7 days after TBI

## O=C(/C=C/c1ccc2c(ccn2S(=O)(=O)c2ccccc2)c1)NO [compound 1, 3-(1-benzensulfonyl-1H-indol-5-yl)-N-hydroxy-acrylamide]
[1]
  Cardiac fibrosis by cardiac morphology (white color changes), FIG. 1: Significant white color changes were found in left ventricular apex in HF+vehicle rat, but not in control rat and HF+compound 1 rat
[1]; versus vehicle
  Cardiac fibrosis by collagen deposition (Masson trichrome), FIG. 2: less cardiac fibrosis than that treated with vehicle
[2]
  Up-regulation of CREB (p-CREB and t-CREB), FIG. 8: up-regulation of CREB including phosphorylated CREB (p-CREB) and total CREB (t-CREB), was observed
[3]; MCAO rats infused at 30 min, 2 hrs, 4 hrs and 24 hrs after MCAO, volume calculated 3 days after MCAO
  Infarction volume, FIG. 7B: significantly reduce infraction volume even 24 hrs after MCAO
[3]; MCAO rats, 30 mg/Kg intravenous, N=5 per group, 3 days
  Infarction volume, FIG. 7A: significant reduction of infarction volume
[4]
  Behaviour function deficits (skilled forelimb reaching task), FIG. 6: significantly improve the behaviour function deficits caused by TBI
[5]
  Cardiac ANP mRNA, FIG. 3: significantly decreased cardiac ANP mRNA
[6]
  Reduction of contusion area caused by TBI, FIG. 5: more effective in diminishing the area of damaged brain tissues as compared with that of valproic acid (VPA)
